Among the data in the supplement of paper PMC12819154, “High-throughput peptide-centric local stability assay extends protein–ligand identification to membrane proteins, tissues and bacteria” (Nature Structural & Molecular Biology, 2025) are log2 fold change values, retold here.

The list shows a part of the results. Most entries show no effect beyond the scatter of the controls.

Compound in this test: Cc1nc(Nc2ncc(C(=O)Nc3c(C)cccc3Cl)s2)cc(N2CCN(CCO)CC2)n1 [dasatinib]
Description: log2 fold change of tryptic peptide abundance, ligand vs vehicle (limited proteolysis) (log2 ratio); higher = more trypsin-susceptible (destabilized). Conditions: ligand concentration: 5 uM; sample: K562 cleared lysate.
Take “VAV1 (peptide sequence: DFVNLHSFQVR, peptide start residue: 445) (UniProt P15498)”: the log2 fold change came out at 0.162.
Under “NCL (peptide sequence: KVAVATPAKK, peptide start residue: 71) (UniProt P19338)” stands -0.12.
Under “UBTF (peptide sequence: TPQQLWYTHEKK, peptide start residue: 201) (UniProt P17480)” stands 0.95; under “HIVEP1 (peptide sequence: ASPVSFQELNR, peptide start residue: 1157) (UniProt P15822)”, -0.308; under “HPGD (peptide sequence: VALVTGAAQGIGR, peptide start residue: 7) (UniProt P15428)”, -0.17.
Under “HIST1H1B (peptide sequence: RKATGPPVSELITK, peptide start residue: 36) (UniProt P16401)” stands -0.443; under “UniProt P17030 (peptide sequence: QGKEPWILEVEFPHR, peptide start residue: 62)”, -0.337.
Regarding “ZNF708 (peptide sequence: AFNQSSTLMK, peptide start residue: 512) (UniProt P17019)”, the log2 fold change is -0.627.
Then “COMT (peptide sequence: DKVTLVVGASQDIIPQLK, peptide start residue: 160) (UniProt P21964)”, with 0.098; and “FKBP2 (peptide sequence: LVIPSELGYGER, peptide start residue: 104) (UniProt P26885)”, with 0.0511; and “AKR1A1 (peptide sequence: EELFVTSK, peptide start residue: 73) (UniProt P14550)”, with -0.428.
For “ATP2B1 (peptide sequence: SSIHNFMTHPEFR, peptide start residue: 1139) (UniProt P20020)”, the log2 fold change is -0.188.
Then “DTYMK (peptide sequence: AELLRFPERSTEIGK, peptide start residue: 37) (UniProt P23919)”, with -0.481; and “MYL6B (peptide sequence: HVLTTLGEK, peptide start residue: 168) (UniProt P14649)”, with -0.26; and “HRC (peptide sequence: EMSHHPPGHTVVK, peptide start residue: 460) (UniProt P23327)”, with -0.473.
Regarding “H2AFX (peptide sequence: KTSATVGPK, peptide start residue: 120) (UniProt P16104)”, the log2 fold change was -0.0875.
Under “RRM1 (peptide sequence: DFSYNYFGFK, peptide start residue: 140) (UniProt P23921)” stands -0.264; under “UCHL3 (peptide sequence: QTISNACGTIGLIHAIANNKDK, peptide start residue: 89) (UniProt P15374)”, 0.303; under “EZR (peptide sequence: ITEAEKNER, peptide start residue: 518) (UniProt P15311)”, 0.174.
In the case of “PSMA1 (peptide sequence: LLCNFMR, peptide start residue: 83) (UniProt P25786)”, the log2 fold change is -0.0464.
Under “DGKA (peptide sequence: YTVHDQCAMK, peptide start residue: 240) (UniProt P23743)” stands 1.4; under “DES (peptide sequence: KLLEGEESR, peptide start residue: 402) (UniProt P17661)”, -0.091; under “ARF4 (peptide sequence: MLLVDELR, peptide start residue: 110) (UniProt P18085)”, -0.182.
Under “HNRNPA2B1 (peptide sequence: DYFEEYGK, peptide start residue: 130) (UniProt P22626)” stands 0.211; under “ZNF22 (peptide sequence: SFFQSSNLIQHR, peptide start residue: 91) (UniProt P17026)”, 0.0815; under “RPA2 (peptide sequence: QAVDFLSNEGHIYSTVDDDHFK, peptide start residue: 244) (UniProt P15927)”, 0.0943.
Under “SON (peptide sequence: QPEESESK, peptide start residue: 132) (UniProt P18583)” stands 0.342.
